In publication PMC3728621, “Structural analysis of autoinhibition in the Ras-specific exchange factor RasGRP1” (eLife, 2013):
These are yes or no findings as the source states them, for the method shown. Some results given as binding are weak or reduced against the parent protein; the word gives no strength.

Biological target: RasGRP1^CC (human RasGRP1 C-terminal coiled coil, residues 739-793) (human) (UniProt O95267)
Test: crystal structure; RasGRP1^CC at 1.6 Å; 20 mM sodium acetate pH 3.6, 22% PEG 3350, 100 mM lithium sulfate, 0.4% formamide; two molecules in the asymmetric unit; both purified

binding: binds
B1: RasGRP1^CC (human RasGRP1 C-terminal coiled coil, residues 739-793) (domain or fragment, UniProt O95267 739-793, looked up)
chain: ELRHLRLPTYQELEQEINTLKADNDALKIQLKYAQKKIESLQLEKSNHVLAQMEQ
notes: human RasGRP1 (full length 797 residues), residues 739-793, containing the predicted coiled coil (747-789); Parallel dimeric coiled coil; The model holds residues 745-793 (molecule A) and 745-786 (molecule B); also called C-terminal oligomerization domain; source: E. coli BL21(DE3), purified (HisTrap, tag removal with ULP1, second HisTrap, Superdex gel filtration); not shown: His6, N-terminal, …
